Results as given in paper PMC9224301.
Results are given in words; binding and its absence hold for the method and conditions named. For some of these results: Binding seen in cells or lysates may run through a third protein. Some results given as binding are weak or reduced against the parent protein; the word gives no strength. Where a sequence is shown, tags or fusion partners need not be part of it. One block for each binder: values may come before it.

How the values were obtained:
[1] = biological target: T1, Chl1-5xFlag (S. pombe) (UniProt O14147); experiment: co-IP; cell extracts in 1x HC buffer (150 mM HEPES-KOH pH 7.5, 250 mM KCl), anti-Flag M2 agarose beads for 3 h, Western blot with anti-Flag and anti-MYC
T1 sequence: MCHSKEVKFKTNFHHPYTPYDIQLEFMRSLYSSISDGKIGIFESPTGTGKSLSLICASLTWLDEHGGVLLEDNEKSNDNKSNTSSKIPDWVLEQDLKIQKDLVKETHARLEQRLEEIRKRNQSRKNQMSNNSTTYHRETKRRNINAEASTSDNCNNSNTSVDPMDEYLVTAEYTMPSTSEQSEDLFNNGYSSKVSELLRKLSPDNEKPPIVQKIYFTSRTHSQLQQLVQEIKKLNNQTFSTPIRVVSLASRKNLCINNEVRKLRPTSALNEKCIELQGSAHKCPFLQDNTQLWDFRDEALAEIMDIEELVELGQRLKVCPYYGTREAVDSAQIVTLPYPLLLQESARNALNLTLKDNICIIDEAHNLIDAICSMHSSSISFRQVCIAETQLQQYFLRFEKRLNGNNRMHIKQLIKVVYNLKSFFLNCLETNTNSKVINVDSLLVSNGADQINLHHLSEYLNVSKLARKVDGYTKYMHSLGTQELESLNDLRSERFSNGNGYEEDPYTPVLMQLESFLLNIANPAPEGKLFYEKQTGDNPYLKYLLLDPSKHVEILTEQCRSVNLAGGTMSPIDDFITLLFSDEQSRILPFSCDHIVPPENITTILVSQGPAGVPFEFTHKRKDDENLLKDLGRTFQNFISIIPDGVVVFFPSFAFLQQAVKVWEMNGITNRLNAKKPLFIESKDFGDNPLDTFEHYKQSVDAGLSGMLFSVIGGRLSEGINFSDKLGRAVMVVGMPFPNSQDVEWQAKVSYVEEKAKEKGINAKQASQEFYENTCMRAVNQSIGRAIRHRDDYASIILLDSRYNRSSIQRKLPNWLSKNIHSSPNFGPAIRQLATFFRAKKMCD

[2] = biological target: T2, BD-Chl1 (S. pombe) (UniProt O14147); experiment: two-hybrid; pGBKT7 and pGADT7 constructs cotransformed into yeast strain AH109; HIS3 and ADE2 reporters assessed on SD/-Ade/-His/-Leu/-Trp plates
T2 sequence: T1 sequence

binding [1]: binds
B1: Rpc37-13xMyc (protein, UniProt O74883 1-242)
chain: MSFSEDQAMEEAKLRNDETEEQDPVVRTYPVFFSPGLRNNLLLNQFPLRPKNRTYSDANGEAPIDVRVKPKTGWMEVDVPIPTTKYYNEDKAMKYGNGKKPIQTQTLSGRLQKPRTNLMVGLIRDGQFHIVPLRGLTQLRPSMKHVNEYTQKLKAAAGPSNSSSGTSTPRGPIRAVQVTAKQNTEAPKVSTTHIVRATEEEEWVELDCRPERESESILKQLECPIEHQPNECAAVDEDYSFI

binding [2]: binds
B2: AD-Rpc37 (protein, UniProt O74883 1-242)
chain: B1 chain

binding [2]: no binding
B3: Mcl1 (Ctf4 homology) (protein, UniProt Q9C107 1-815)
chain: MAGNRLVPRYAHTDGLTRLAYTRDGKFLLTVGSNQVIRKFQVGSDEEPDSIDNHQDPITGIAVAENYFCTCSEDATVCVYPIDSPTEHTLLARTTLPIRDVAYSVDGNWIAIASDETAVKVVSSTDSSQIFSLRPAKASNKHVTYSPNGNFLAVSSCNGILYFYDTQTRELIKFLTNTIASLEAESEICSKAAWHPKNGTFAVASTDHFVSVISPDDWLPLYKLLPKENHSGVTDISWSSNGMYIAASFKKGGILIWDTQSHEVVVELPYSTVVALAWQPFENVLSFTTNQGILYSCPDVIPKSILKEENDPTKPLTSSKSKNRTSKELDDLFGSDDEQSQNVNDLDGNSANEENEFINHDGLDSSLDLDGDSYMVDENDLNLAKKRKQKALIDRTTTIENGSSKRRLLQASIHKPVHTGSTPWQGNRRYLCLNLVGFIWTVQQDAEHNTITVEFHDETTHRKYHFVDDQKFEMACLDHEGALYASPATESSPGVIYYKAHVDWSRKSEWAMALPMENESPVTISLSSSVVLVCTSAGYVRVFSRQGFPISIHRSKHLPFVACSSFQDTIITIANDGLSSDGNSRLVYSIEDISRDEMLQTGDGVALPPQGTLESVFFSDVGDPYIYDSTGVLLVLMHWRIPGQAKWIPVLDTNELERRKSRQESYWPVTVADNQFHCILLKGASRYPYFPRPMFTEFDFRIPCNTNNPDASTSVPVLEELQLRNKLFLTLLEDSIGDGDVTEDEKISIARLEANIDKALLQLIQKACLEERIERVYELTKTLRRTTSIAAAQKIALHHSLTNVAEKIGNLLSNV

binding [2]: no binding
B4: Eso1 (Eco1 homology) (protein, UniProt O42917 1-872)
chain: MELGKSKFSWKDLQYCDKAGTQNSPLRVVAHIDQDAFYAQVESVRLGLDHSVPLAVQQWQGLIAVNYAARAANISRHETVTEAKKKCPELCTAHVKTWKAGESEAKYHENPNPNYYKTCLDPYRHESVKILNIIKKHAPVVKKASIDECFIELTSDVKRIVLEEYPYLKIPSEDSNVALPQAPVLLWPAEFGMVIEEEVVDRTKEDYERDWDDVFLFYAAKIVKEIRDDIYLQLKYTCSAGVSFNPMLSKLVSSRNKPNKQTILTKNAIQDYLVSLKITDIRMLGGKFGEEIINLLGTDSIKDVWNMSMDFLIDKLGQTNGPLVWNLCHGIDNTEITTQVQIKSMLSAKNFSQQKVKSEEDAINWFQVFASDLRSRFLELEGMRRPKTICLTVVSRFLRKSRSSQIPMNVDISTQFIVEATSKLLRQLQQEFDVYPISNLSISFQNIIEVDRNSRGIEGFLKKSNDEIYMSTSVSPSIEGRAKLLNENMRENNSFELSSEKDIKSPKRLKRGKGKGIFDMLQQTAVSKPTENSADETYTCEECEQKITLSERNEHEDYHIALSISRKERYNNLVPPSHDKPKQVKPKTYGRKTGSKHYAPLSDETNNKRAFLDAFLGNGGNLTPNWKKQTPKAISNSSDNMTQLHLDLANSTVTCSECSMEYNSTSEEDILLHSRFHSRVLGGVTVSFQCSPIYRVNYGLSSDCIYSINSESSLIDQRKAEEALSFVNNELSSEPIETIGVDKYTTFLFISDKKCVGLLLAERISSAYIVDELELNNNNSTSSAVYIKNENLRKGFVLGISRIWVSASRRKQGIASLLLDNALKKFIYGYVISPAEVAFSQPSESGKQFIISWHRSRNNGSSKSLRYAVYES
